Source: publication doi:10.1101/2023.09.20.558662 (bioRxiv, 2023)
Results are given in words; binding and its absence hold for the method and conditions named. In cells and extracts the contact can be indirect.

By UniProt entry, the sequences of proteins in these tests, tags left out. Residues count along the entry.
UniProt Q15796, residues 2-467: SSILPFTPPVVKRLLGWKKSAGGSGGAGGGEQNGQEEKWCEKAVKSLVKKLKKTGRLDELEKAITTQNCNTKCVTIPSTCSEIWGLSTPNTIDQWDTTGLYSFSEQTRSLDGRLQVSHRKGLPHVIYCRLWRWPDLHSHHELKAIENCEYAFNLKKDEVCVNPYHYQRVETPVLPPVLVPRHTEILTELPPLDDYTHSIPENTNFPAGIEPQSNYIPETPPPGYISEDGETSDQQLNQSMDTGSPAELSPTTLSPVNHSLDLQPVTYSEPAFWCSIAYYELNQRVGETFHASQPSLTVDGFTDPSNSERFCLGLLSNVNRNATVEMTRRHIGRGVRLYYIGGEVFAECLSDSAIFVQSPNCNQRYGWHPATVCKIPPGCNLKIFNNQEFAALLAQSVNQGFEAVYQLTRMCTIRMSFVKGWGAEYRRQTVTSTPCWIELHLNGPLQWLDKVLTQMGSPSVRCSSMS
UniProt Q9NXV2: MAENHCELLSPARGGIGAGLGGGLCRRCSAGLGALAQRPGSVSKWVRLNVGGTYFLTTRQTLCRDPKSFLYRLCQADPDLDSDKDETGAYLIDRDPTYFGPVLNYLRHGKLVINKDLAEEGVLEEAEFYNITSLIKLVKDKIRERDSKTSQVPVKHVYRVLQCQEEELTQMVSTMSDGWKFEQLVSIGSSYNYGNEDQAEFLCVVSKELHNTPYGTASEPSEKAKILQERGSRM

Molecular target: TAP-HA-Smad2 (human) (UniProt Q15796)
Assay: pull-down

HA-KCTD5 (from UniProt Q9NXV2 1-234)
binding: no binding
